We go through three molecules from paper PMC6940354, “Comparative Assessment of the New PDE7 Inhibitor – GRMS-55 and Lisofylline in Animal Models of Immune-Related Disorders: A PK/PD Modeling Approach” (Pharmaceutical Research, 2020).

This data set has as its system collagen-induced arthritis (CIA) in female Lewis rats. The data set is described as follows: Collagen-induced arthritis in rats, paw swelling, PK/PD/DIS progression model. The format is in vivo, rat. Conditions: once daily from day 20: GRMS-55 50 mg kg^−1 IP, rolipram 10 mg kg^−1 IP, (±)-LSF 80 mg kg^−1 SC. The procedure: The emulsion of collagen was prepared according to the Protocol for the Successful Induction of Collagen-Induced Arthritis (CIA) in Rats (Chondrex Inc., 2015). Porcine type II collagen dissolved in 0.05 M acetic acid was emulsified with incomplete Freund’s adiuvant (Sigma Aldrich, Germany) using an Omni TH Homogenizer (Omni International, Inc., USA) consisting of a blade with 5 mm diameter. The collagen solution was previously mixed with IFA at a low speed for 1 min and then at the highest speed for 2 min. Then emulsion was being cooled for 5 min in an ice water bath. The emulsification process was repeated 3 times to obtain a stiff emulsion. The emulsion was then transferred into a Hamilton glass syringe, kept at 4°C, and used within 2 h.
At a day 0 of the experiment animals were subcutaneously (SC) injected at the base of the tail with 200 μL of the emulsion using a 27 gauge × 5/8″ needle and Hamilton syringe. At day 7 after the initial immunization, a booster injection with 100 μL of emulsion was performed. Ninety % of rats developed symptoms of disease (paw swelling >150% of day 0) at day 20 of the experiment. At this day, diseased animals were randomly divided into five groups (n = 6). […]
Paw edema of arthritic rats was assessed as swelling of the rat hind paws. […] Each hind leg was measured at two sections, i.e., paw and ankle, and each section was measured at two places (side-to-side and top-to-bottom). The area of each section (elliptical in shape) was calculated from the following equation:2 Area=π·a·b/4 where (a) is side-to-side diameter of the ellipse and (b) is top-to-bottom diameter of the ellipse. […] Each of these measures was normalized to the same hind paw area measured at day 0 of the experiment (Areazero) to reduce variation in the disease progression resulting from differences in paw size of each rat. Relative paw swelling (Paw) was calculated according to the equation:3 Paw=Areaoverall/Areazero
Paw size was measured at days 0, 5, 7, 11, 15, 18, 20, 22, 26, 30, 33, and 36 after the first immunization. […]

With `Cn1c(=O)c2c(nc(NCCc3ccccc3)n2CCCC(=O)NN=Cc2ccccc2O)n(C)c1=O` [GRMS-55, 4-(1,3-Dimethyl-2,6-dioxo-8-(phenethylamino)-2,3,6,7-tetrahydro-1H-purin-7-yl)-N′-(2-hydroxybenzylidene)butanehydrazide], the “τ, mean transit time, Final estimate (CV%)” value (shortened to “τ, mean transit time … (CV%)”) is recorded as 0.257 (16.8) day.

As to `COc1ccc(C2CNC(=O)C2)cc1OC1CCCC1` (stereo not drawn) [Rolipram, rolipram], the “τ, mean transit time … (CV%)” value is reported as 0.257 (16.8) day.

With `CC(O)CCCCn1c(=O)c2c(ncn2C)n(C)c1=O` (racemic) [(±)-LSF, lisofylline], the “τ, mean transit time … (CV%)” value is 0.371 (19.7) day.
